PubChem BioAssay AID1259285, Sanger Institute | 2017
Here is an unselected part of 794 reagents. Of all reagents, 20 (2.5%) are marked active. 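Calls rest on the drug-free arm alone and ignore synergy scores; viability ratios seem to be capped at 1.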 A number with no mark means an inactive call. The record does not give: the amount of reagent, the time to read-out.

Assay: 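Kinase knock-downs that reduce colorectal cancer cell viability or act with drugs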 (primary screen)
Cells: human HCC56 colorectal cancer cells
Reagents: siRNA pool against human genes
Treatment: DMSO vehicle, or anchor drug BYL719 at 1 µM, cetuximab at 5 µg/ml, or trametinib at 10 nM
Measurement: 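Replicate-averaged viability relative to non-targeting siRNA, expressed as a robust z-score from controls, plus a synergy score for each of three anchor drugs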
Reading the numbers: viability robust z-score, no drug: higher = more viable cells, weaker knock-down effect; viability vs non-targeting pool, no drug: higher = more viable cells; synergy score with BYL719: higher = stronger combined killing with BYL719; synergy score with cetuximab: higher = stronger combined killing with cetuximab; synergy score with trametinib: higher = stronger combined killing with trametinib
Call rule: 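Essential when the drug-free viability robust z-score falls below -3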
Calls: active = essential without drug; inactive = no change without drug

no.	Target gene	viability robust z-score, no drug	viability vs non-targeting pool, no drug	synergy score with BYL719	synergy score with cetuximab	synergy score with trametinib
1	PRKG1 (protein kinase cGMP-dependent 1)	0.458	1	0.0705	-0.0595	0.0244
2	NUP98 (nucleoporin 98 and 96 precursor)	-0.733	0.898	0.216	0.268	0.108
3	STK31 (serine/threonine kinase 31)	0.458	1	-0.0208	-0.0817	0.0173
4	PIK3C2B	-0.291	0.936	0.00704	0.0338	0.0329
5	PRKD2 (protein kinase D2)	-3.1 (active)	0.694	-0.0556	-0.0801	0.0271
6	CDK1 (cyclin dependent kinase 1)	0.458	1	-0.0831	-0.107	-0.0162
7	FOXP1 (forkhead box P1)	0.458	1	0.0457	-0.0042	0.105
8	SRGAP3 (SLIT-ROBO Rho GTPase activating protein 3)	0.458	1	-0.162	-0.142	-0.229
9	DGUOK (deoxyguanosine kinase)	-3.05 (active)	0.699	0.0962	0.0775	-0.0385
10	EEF2K (eukaryotic elongation factor 2 kinase)	0.458	1	-0.162	-0.142	-0.0138
11	BLK (BLK proto-oncogene, Src family tyrosine kinase)	0.458	1	0.00349	-0.11	0.0851
12	STK40 (serine/threonine kinase 40)	-0.594	0.91	-0.0619	-0.135	-0.109
13	PHKG2 (phosphorylase kinase catalytic subunit gamma 2)	0.458	1	-0.162	-0.142	-0.245
14	PRPS2 (phosphoribosyl pyrophosphate synthetase 2)	0.458	1	0.0484	0.0278	0.0572
15	CAMK2A (calcium/calmodulin dependent protein kinase II alpha)	0.458	1	-0.162	-0.142	-0.0558
16	BRD3 (bromodomain containing 3)	0.458	1	-0.162	-0.142	-0.0586
17	PCK2 (phosphoenolpyruvate carboxykinase 2, mitochondrial)	0.458	1	-0.0971	-0.142	-0.124
18	PFKM (phosphofructokinase, muscle)	0.458	1	-0.0508	-0.082	0.0627
19	PRKCSH (PRKCSH beta subunit of glucosidase II)	-0.366	0.929	-0.193	-0.203	0.0313
20	PSKH2 (protein serine kinase H2)	0.458	1	-0.0157	0.0249	0.165
21	CDKL1 (cyclin dependent kinase like 1)	0.0648	0.966	0.0997	-0.0248	0.0994
22	PRKAG2 (protein kinase AMP-activated non-catalytic subunit gamma 2)	0.458	1	-0.137	-0.0984	-0.0388
23	PIP4K2A (phosphatidylinositol-5-phosphate 4-kinase type 2 alpha)	0.458	1	-0.162	-0.099	-0.0599
24	TEC (tec protein tyrosine kinase)	0.458	1	-0.0628	-0.142	0.0383
25	BMPR1B (bone morphogenetic protein receptor type 1B)	0.458	1	-0.118	-0.142	-0.166
26	CKMT1B (creatine kinase, mitochondrial 1B)	-1.62	0.822	-0.105	-0.117	-0.101
27	KALRN (kalirin RhoGEF kinase)	0.458	1	-0.138	-0.142	-0.0265
28	PRKCG (protein kinase C gamma)	0.339	0.99	0.0903	0.107	0.0847
29	PIK3CG	-0.325	0.933	0.0248	-0.0184	0.0282
30	HK3 (hexokinase 3)	0.44	0.998	0.0128	-0.0619	0.0883
31	FER (FER tyrosine kinase)	0.458	1	-0.162	-0.142	0.000658
32	MAPK7 (mitogen-activated protein kinase 7)	0.458	1	0.0595	0.0791	0.0451
33	PI4K2B (phosphatidylinositol 4-kinase type 2 beta)	0.253	0.982	-0.104	-0.0456	-0.2

Next part; the last 4 above are carried over.
no.	Target gene	viability robust z-score, no drug	viability vs non-targeting pool, no drug	synergy score with BYL719	synergy score with cetuximab	synergy score with trametinib
30	HK3 (hexokinase 3)	0.44	0.998	0.0128	-0.0619	0.0883
31	FER (FER tyrosine kinase)	0.458	1	-0.162	-0.142	0.000658
32	MAPK7 (mitogen-activated protein kinase 7)	0.458	1	0.0595	0.0791	0.0451
33	PI4K2B (phosphatidylinositol 4-kinase type 2 beta)	0.253	0.982	-0.104	-0.0456	-0.2
34	CDK18 (cyclin dependent kinase 18)	0.458	1	-0.101	-0.0476	-0.0868
35	STK11 (serine/threonine kinase 11)	0.458	1	0.00872	-0.142	-0.163
36	N4BP2 (NEDD4 binding protein 2)	0.458	1	-0.144	-0.142	-0.063
37	ZAP70 (zeta chain of T cell receptor associated protein kinase 70)	-0.0461	0.957	-0.144	-0.132	0.0243
38	PTK2B (protein tyrosine kinase 2 beta)	0.458	1	0.0145	-0.0511	-0.0232
39	EFNA5 (ephrin A5)	0.458	1	-0.162	-0.142	-0.137
40	RPS6KA6 (ribosomal protein S6 kinase A6)	0.458	1	0.0448	-0.0217	0.00883
41	PLK4 (polo like kinase 4)	0.458	1	-0.128	-0.0792	-0.0985
42	PI4K2A (phosphatidylinositol 4-kinase type 2 alpha)	0.458	1	-0.0673	-0.142	-0.0288
43	MAPK10 (mitogen-activated protein kinase 10)	0.458	1	-0.162	-0.142	-0.0585
44	MPP2 (MAGUK p55 scaffold protein 2)	-0.954	0.879	-0.116	-0.132	0.0144
45	SNRK (SNF related kinase)	-1.07	0.869	0.0261	0.00508	-0.107
46	EPHA7 (EPH receptor A7)	0.405	0.995	-0.114	-0.138	0.0247
47	PDGFRL (platelet derived growth factor receptor like)	0.458	1	-0.112	-0.142	0.0451
48	MAP4K2 (mitogen-activated protein kinase kinase kinase kinase 2)	0.458	1	0.132	0.0312	0.0796
49	MKNK2 (MAPK interacting serine/threonine kinase 2)	0.458	1	-0.162	-0.142	-0.0461
50	DCLK1 (doublecortin like kinase 1)	0.458	1	0.0111	-0.0281	0.081
